Results as given in PMC4737751.
These are yes or no findings as the source states them, for the method shown. For some of these results: In cells and extracts the contact can be indirect. Some entries that bind do so weakly or less than the wild type. For some of these results: Sequences can lack the tags named with a protein. Each block holds one molecule with its values, some of them ahead of it.

Sequences of proteins named here, by UniProt entry; tags and fusion partners are left off.
UniProt P87112: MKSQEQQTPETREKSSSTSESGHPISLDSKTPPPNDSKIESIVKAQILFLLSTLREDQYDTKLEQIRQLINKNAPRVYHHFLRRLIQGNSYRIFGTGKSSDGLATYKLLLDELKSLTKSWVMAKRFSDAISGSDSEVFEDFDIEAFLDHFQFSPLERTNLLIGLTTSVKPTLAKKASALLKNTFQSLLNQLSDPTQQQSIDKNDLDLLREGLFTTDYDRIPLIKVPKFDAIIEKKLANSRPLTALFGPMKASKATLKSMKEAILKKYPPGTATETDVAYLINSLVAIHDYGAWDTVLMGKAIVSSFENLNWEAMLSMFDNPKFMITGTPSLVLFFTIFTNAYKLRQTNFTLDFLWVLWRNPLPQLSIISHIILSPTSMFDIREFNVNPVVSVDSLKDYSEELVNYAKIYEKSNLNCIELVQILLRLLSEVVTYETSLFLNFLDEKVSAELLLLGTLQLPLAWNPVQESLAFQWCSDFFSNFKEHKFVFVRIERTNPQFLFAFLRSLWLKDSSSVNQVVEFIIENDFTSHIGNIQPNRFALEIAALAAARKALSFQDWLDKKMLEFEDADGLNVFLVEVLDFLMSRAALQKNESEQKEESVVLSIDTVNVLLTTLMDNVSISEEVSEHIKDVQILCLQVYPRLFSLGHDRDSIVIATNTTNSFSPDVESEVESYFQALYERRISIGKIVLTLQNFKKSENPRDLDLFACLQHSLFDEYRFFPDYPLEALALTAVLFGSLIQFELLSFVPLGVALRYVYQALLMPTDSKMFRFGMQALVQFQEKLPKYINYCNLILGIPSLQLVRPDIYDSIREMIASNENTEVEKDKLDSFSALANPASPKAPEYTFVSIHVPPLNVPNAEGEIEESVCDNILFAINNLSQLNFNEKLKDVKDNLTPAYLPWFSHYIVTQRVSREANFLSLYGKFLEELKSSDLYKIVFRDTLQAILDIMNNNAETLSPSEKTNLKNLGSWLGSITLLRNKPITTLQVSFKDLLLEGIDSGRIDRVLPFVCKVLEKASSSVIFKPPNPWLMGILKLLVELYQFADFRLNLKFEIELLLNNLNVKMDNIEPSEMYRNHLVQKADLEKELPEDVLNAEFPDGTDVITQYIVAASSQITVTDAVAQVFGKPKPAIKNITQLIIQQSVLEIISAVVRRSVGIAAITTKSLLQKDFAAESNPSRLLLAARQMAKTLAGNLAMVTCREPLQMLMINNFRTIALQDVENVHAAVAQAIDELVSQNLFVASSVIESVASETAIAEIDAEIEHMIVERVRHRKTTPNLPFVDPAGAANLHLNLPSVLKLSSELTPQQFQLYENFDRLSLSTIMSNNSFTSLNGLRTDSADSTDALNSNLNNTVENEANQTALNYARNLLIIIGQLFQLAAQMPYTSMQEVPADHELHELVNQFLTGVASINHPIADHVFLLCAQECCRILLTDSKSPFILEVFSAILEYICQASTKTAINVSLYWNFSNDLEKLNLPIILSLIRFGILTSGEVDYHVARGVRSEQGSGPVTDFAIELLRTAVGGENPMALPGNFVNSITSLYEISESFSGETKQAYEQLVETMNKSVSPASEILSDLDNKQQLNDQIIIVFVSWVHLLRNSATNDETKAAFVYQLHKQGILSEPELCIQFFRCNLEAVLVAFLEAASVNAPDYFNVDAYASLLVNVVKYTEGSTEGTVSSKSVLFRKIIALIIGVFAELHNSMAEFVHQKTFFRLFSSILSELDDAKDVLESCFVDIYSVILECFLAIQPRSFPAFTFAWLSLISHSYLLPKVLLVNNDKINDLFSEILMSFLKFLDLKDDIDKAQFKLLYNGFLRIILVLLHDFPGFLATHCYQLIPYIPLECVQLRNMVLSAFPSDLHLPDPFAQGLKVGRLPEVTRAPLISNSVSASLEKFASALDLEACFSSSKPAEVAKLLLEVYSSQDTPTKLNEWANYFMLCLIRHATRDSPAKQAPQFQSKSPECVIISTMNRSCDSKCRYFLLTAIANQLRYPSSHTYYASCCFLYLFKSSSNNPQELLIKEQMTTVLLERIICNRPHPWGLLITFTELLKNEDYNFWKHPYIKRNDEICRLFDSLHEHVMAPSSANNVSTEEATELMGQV

Key:
[1] = target: T1, Not2 subunit of the S. pombe CCR4-NOT complex, fused to Protein A with a TEV protease cleavage site (S. pombe) (UniProt P87240); assay: co-sedimentation; complexes from GFP-fusion strains purified on IgG beads through Protein A on Not2, TEV eluate incubated with anti-GFP antibody or Fab (30 min, 4 °C), glycerol gradient, fractions analysed by SDS-PAGE
T1 sequence: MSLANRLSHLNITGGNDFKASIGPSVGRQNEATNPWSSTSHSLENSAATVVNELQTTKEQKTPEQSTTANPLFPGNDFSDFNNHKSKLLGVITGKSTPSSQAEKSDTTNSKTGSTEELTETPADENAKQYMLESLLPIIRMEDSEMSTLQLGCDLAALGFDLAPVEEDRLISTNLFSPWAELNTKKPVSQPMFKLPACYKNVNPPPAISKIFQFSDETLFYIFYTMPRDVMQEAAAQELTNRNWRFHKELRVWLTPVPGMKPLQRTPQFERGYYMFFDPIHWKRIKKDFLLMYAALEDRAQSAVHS

[2] = target: T2, S. cerevisiae Not2 (S. cerevisiae) (UniProt P06100); assay: negative staining EM 3D reconstruction; purified S. cerevisiae Not2-Not5 heterodimer, 2% uranyl acetate, 20,055 particles, 16 Å resolution; both purified
T2 sequence: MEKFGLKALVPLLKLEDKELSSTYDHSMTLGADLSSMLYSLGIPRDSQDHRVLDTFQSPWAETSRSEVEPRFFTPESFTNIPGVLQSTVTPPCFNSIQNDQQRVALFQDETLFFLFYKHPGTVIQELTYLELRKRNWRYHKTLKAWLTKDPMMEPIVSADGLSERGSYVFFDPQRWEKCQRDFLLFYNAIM

[3] = target: T2, S. cerevisiae Not2 (S. cerevisiae); assay: SEC; S. cerevisiae Not2 and Not5 coexpressed in E. coli and co-purified; complex formation confirmed by size-exclusion chromatography; both purified

B1: Caf40 of S. pombe with GFP fused to its C terminus (protein, UniProt Q92368 1-283)
chain: MENLESPNYEPALVYEWIIQLVSGTSREQALVELSRKREQYEDLALILWHSYGVMTALLQEIISVYPLLNPPTLTGPTSNRVCNALALLQCIASHPETRIHFLNAHITLFLYPFLNTLSKSKPFEYLRLTSLGVIGALVKNDSPEVINFLLSTEIIPLCLRIMENGSELSKTVAIFIVQKFLCDDVGLQYICQTYERFYAVASVLNNMVMQLVDSFAFRLLKHVIRCYLRLSDNPRAREALRHCLPEPLRDATFAQVLKDDHNTKKCLAQLLINLSDVAVVNQ
binding [1]: binds

B3: Ccr4 of S. pombe with GFP fused to its C terminus (protein, UniProt O74874 1-690)
chain: MFNPRYTQGTIYPGAHPGLLTPDHQHAAILSVQNSPALENSNISEHWKQQIALATQSRSFSSPHQRAHNAAALARSGGPGFSMNYNARTGAFTGGPNAAGLSSLGGKYNTSSTTTTLTTSTTLNTSSGTTLNSTSKTTTSSVAVDDQKSKSDSKKERRDWTCLDLGGIGLRNVSTDLFKFSFLTELYINHNNLTRLPPEIGKLKNLVILDASGNSIKTIPPELGLLTELREVLLFDNMISVIPAELGTLFQLKILGIEGNPLQDVYKNQIMESGTAGLIAALRDGCPVGPPPPERGWEKLVSDDDDDVNDNVSTSVRDLTAADSNKPSTTSKNLKFTIMSYNVLCERYATSTLYGYTPSWALSWSYRKDLIMQELGGYNADIICLQEVDVENYDTFFAPQMSLKGYKGVHFPKSRVRTMNEVERRIVDGCATFFKTSKYVMHEKMVIEYNQAPSLRRQDIKLTSNMYNRVMTKDNISVITLLENKENGSRLIVANCHIHWDPQFRDVKVIQVAMLMDEIAQVATKFRNMPSKIPSDQLKDERPTYPEYLKIPILICGDFNSVQGSGVYDFLSSGSISQNHEDFMNNDYGEYTVNGRSHAFNLKSAYGESEALSFTNYTPGFKGAIDHIWYTGNSLEVTGLLKGVDKDYLSGVVGFPNAHFPSDHICLLAEFKVKQEKTPLPSSKFNNDKK
binding [1]: binds

B5: Caf1 of S. pombe with GFP fused to its C terminus (protein, UniProt O74856 1-335)
chain: MTAMNSNFSYPALGVDGISSQISPIRDVWSTNLQQEMNLIMSLIERYPVVSMDTEFPGVVARPLGVFKSSDDYHYQTLRANVDSLKIIQIGLALSDEEGNAPVEACTWQFNFTFNLQDDMYAPESIELLTKSGIDFKKHQEVGIEPADFAELLIGSGLVLQEEVTWITFHSGYDFAYLLKAMTQIPLPAEYEEFYKILCIYFPKNYDIKYIMKSVLNNSKGLQDIADDLQIHRIGPQHQAGSDALLTARIFFEIRSRYFDGSIDSRMLNQLYGLGSTGSVLWHNNSSTPQIQFRDLPGAHPSPTPSNAGIPTTLTNTSSAPNFANSTFRFPPRVV
binding [1]: binds

Results, then the molecule that gave them:

binding [1]: binds
Molecule: Not1 of S. pombe with GFP fused to its C terminus (from UniProt P87112 1-2100)

binding [1]: binds
B2: Not3 of S. pombe with GFP fused to its C terminus (protein, UniProt O13870 1-640)
chain: MSARKLQVEIEKTFKKVTDGIAIFDEVYEKLSASNSVSQKEKLEGDLKTQIKKLQRLRDQIKTWASSNDIKDKKALLENRRLIEAKMEEFKAVEREMKIKAFSKEGLSIASKLDPKEKEKQDTIQWISNAVEELERQAELIEAEAESLKATFKRGKKDLSKLSHLSELESRIERHKWHQDKLELIMRRLENSQISPEAVNDIQEDIMYYVECSQSEDFAEDENLYDELNLDEASASYDAERSGRSSSSSHSPSPSASSSSSSENLLQDKAEAEEKVSADASVQDIAEKESLDADKELATNDQEDDEEENQAETQKDGAISNNENMQSEVQTTNPSASTSAVTNITKPTLIQNPSTPLSVSNSKVASPETPNATHTAPKVEMRYASAAAAAAAALAKESPSHHYIMQQVRPETPNSPRLNSTVIQSKWDSLGHTASPKMQTQPVRSVSQSSATTETNVKPTKEENADVPVSSPDYLKDLVNALNTSKEQHKGAIDKEKLTEALNISCVYVPDATDAAKPQYYIPKDPYPVPHYYPQQPLPLFDSSEMTELVDPDTLFYMFYYRPGTYQQYIAGQELKKQSWRFHKKYTTWFQRHEEPKMITDEFESGSYRYFDFEGDWVQRKKADFRFTYQYLEDDDDWTR

binding [2]: binds
binding [3]: binds
B4: S. cerevisiae Not5 (protein, UniProt Q12514 1-560)
chain: MSQRKLQQDIDKLLKKVKEGIEDFDDIYEKFQSTDPSNSSHREKLESDLKREIKKLQKHRDQIKTWLSKEDVKDKQSVLMTNRRLIENGMERFKSVEKLMKTKQFSKEALTNPDIIKDPKELKKRDQVLFIHDCLDELQKQLEQYEAQENEEQTERHEFHIANLENILKKLQNNEMDPEPVEEFQDDIKYYVENNDDPDFIEYDTIYEDMGCEIQPSSSNNEAPKEGNNQTSLSSIRSSKKQERSPKKKAPQRDVSISDRATTPIAPGVESASQSISSTPTPVSTDTPLHTVKDDSIKFDNSTLGTPTTHVSMKKKESENDSEQQLNFPPDRTDEIRKTIQHDVETNAAFQNPLFNDELKYWLDSKRYLMQPLQEMSPKMVSQLESSLLNCPDSLDADSPCLYTKPLSLPHPTSIFFPNEPIRFVYPYDVPLNLTNNENDTDNKFGKDSKAKSKKDDDIYSRTSLARIFMKFDLDTLFFIFYHYQGSYEQFLAARELFKNRNWLFNKVDRCWYYKEIEKLPPGMGKSEEESWRYFDYKKSWLARRCGNDFVYNEEDFEKL
